Results as given in PubChem BioAssay AID1671190 (National Center for Advancing Translational Sciences (NCATS), 2021).
Several values for one entry are separate records, joined by “and”; a condition that tells them apart may be missing. Equal values may be shown once. The campaign covered roughly 580,000 compounds. About 6,100 (1.1%) were called active. Inconclusive results, whose numbers are uncertain, are shown with a selection of clear calls. Calls follow the shape of the dose curve; as a rule, active = well fitted inhibition curve with a large enough effect; inconclusive = small, poorly fitted or top-dose-only effect, or another doubt; inactive = no such curve, though single readings can be large or run the other way. Where the call is inconclusive, the potency comes from a doubtful curve fit.

Sequences of proteins named here, by UniProt entry; tags and fusion partners are left off. A change or cut given only in a name is not applied to a line headed by its entry.
UniProt P18054: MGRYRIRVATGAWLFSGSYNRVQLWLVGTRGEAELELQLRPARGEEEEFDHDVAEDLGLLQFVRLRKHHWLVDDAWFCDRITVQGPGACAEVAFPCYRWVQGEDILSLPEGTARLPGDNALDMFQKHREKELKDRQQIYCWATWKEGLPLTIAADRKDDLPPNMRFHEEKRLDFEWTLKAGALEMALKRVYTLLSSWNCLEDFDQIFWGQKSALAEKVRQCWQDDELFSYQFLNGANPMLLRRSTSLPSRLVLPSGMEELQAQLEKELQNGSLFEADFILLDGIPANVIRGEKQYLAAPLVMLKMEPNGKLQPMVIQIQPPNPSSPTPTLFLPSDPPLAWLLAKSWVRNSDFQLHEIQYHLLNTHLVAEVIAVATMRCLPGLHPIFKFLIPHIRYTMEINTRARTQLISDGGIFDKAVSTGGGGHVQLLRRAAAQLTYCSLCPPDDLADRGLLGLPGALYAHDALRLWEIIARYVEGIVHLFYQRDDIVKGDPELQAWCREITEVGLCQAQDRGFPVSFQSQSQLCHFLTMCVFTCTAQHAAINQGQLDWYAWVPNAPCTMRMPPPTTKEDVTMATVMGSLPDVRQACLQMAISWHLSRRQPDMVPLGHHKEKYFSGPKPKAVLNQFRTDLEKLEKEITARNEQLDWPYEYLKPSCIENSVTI

Target: Polyunsaturated fatty acid lipoxygenase ALOX12 (Homo sapiens) (UniProt P18054)
Test: Primary qHTS assay for inhibitors of human arachidonate 12S-lipoxygenase (ALOX12): Round 2
Conditions: purified 12hLO, xylenol orange hydroperoxide absorbance; activity change, negative = inhibition: at 108 µM (top of the series) unless noted
Procedure, shortened: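 Purified human 12hLO (150 nM final) in 25 mM Hepes, 0.01% Triton X-100, pH 7.0 was preincubated 15 min at room temperature with compound. Then 40 uM arachidonic acid was added, 30 min. Hydroperoxide was read by Fe-XO absorbance ratio 573/405 nm.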
% is scaled to controls: 0 for no effect and ±100 for the full control effect; potency is read from the fitted curve at half-maximal effect.

| SMILES | activity change, negative = inhibition | Potency |
| --- | --- | --- |
| COc1cccc(-c2nc(CS(=O)(=O)CC(=O)NCc3ccccc3OC)c(C)o2)c1 | inactive: 26.2% | – |
| COc1ccc(NC(=O)N[C@H]2[C@H](O)[C@@H](N3CCC(Cc4ccccc4)CC3)[C@@H]3OC[C@H]2O3)cc1 | – | inconclusive: 56.2 µM [inhibitor, partial curve, poor fit] |
| COc1cc(OC)c(N(C)C(=O)c2nn(C)c3c2CSc2ccccc2-3)cc1Cl | inactive: -17.2% | – |
| CCN1C=C(Cc2ccc(OC)cc2)C2=C(C1)C(c1ccc(OC)cc1)C(C#N)=C(N)O2 (stereo not given) | – | active: 17.8 µM |
| Cc1cc(C)n(CCCO)c(=O)c1C#N | inactive: 4.33% | – |
| Cn1cc(-c2cc3n(n2)CCCN3C(=O)CCC(=O)NCCCN2CCCC2)c2ccccc21 | – | inconclusive: 50.1 µM [inhibitor, partial curve, poor fit] |
| CC(/C=C/c1ccccc1)=N\NC(=O)c1ccc(C(C)(C)C)cc1 | inactive: 52.7% | – |
| FC(F)(F)Oc1cccc(CNC[C@H]2Cn3ccnc3CO2)c1 | inactive: 41.9% [at 176 µM] | – |
| CCCC1CCC(=NNS(=O)(=O)c2ccc(C)c([N+](=O)[O-])c2)CC1 (stereo not given) | – | inconclusive: 50.1 µM [inhibitor, partial curve, poor fit] |
| CC(NC(=O)c1cnccn1)c1ccc(S(N)(=O)=O)cc1 (stereo not given) | inactive: -9.64% | – |
| COc1ccc(-c2nc(C#N)c(N3CCC(Cc4ccccc4)CC3)o2)cc1OC | inactive: -0.32% | – |
| CCN(C(=O)C=Cc1ccco1)c1ccccc1 | – | inconclusive: 39.8 µM [inhibitor, partial curve] |
| C#CCN(C)C(=O)[C@@H]1CCCN1[C@@H](C(=O)NC)c1ccc(OC)cc1 | – | inconclusive: 22.4 µM [inhibitor, full curve] |
| Cc1ccc(C(=O)N2CCN(Cc3ccc4c(c3)OCO4)CC2)cc1C | inactive: -14.8% | – |
| COc1cc(OC2CCN(C)CC2)ccc1Nc1ncc2c(n1)n(C1CCCC1)c(=O)n2C | – | inconclusive: 0.385 µM [inhibitor, full curve] |
| CC(CN1CCCC1)OC(=O)c1cc(C(C)(C)C)cc(C(C)(C)C)c1 (stereo not given) | – | inconclusive: 3.16 µM [inhibitor, full curve, poor fit] |
| CCCNC(=O)CNC(=O)C1=NN(C)C(=O)CC1 | inactive: -6.05% | – |
| O=[N+]([O-])c1ccc2[nH]c(O)c(N=Nc3ccc(F)cc3)c2c1 | inactive: -23.1% | – |
| [N-]=C=C1C(=O)NC(=O)C([n+]2ccc(-c3ccncc3)cc2)C1c1ccccc1C(F)(F)F (stereo not given) | – | inconclusive: 28.2 µM [inhibitor, partial curve, poor fit] |
| Cc1ccnn1CCC(=O)O | inactive: -15.7% | – |
| COc1ccc2nc(Cl)c(C3CC(c4ccco4)=NN3C(=O)CCCC(=O)O)cc2c1 (stereo not given) | inactive: -28.8% | – |
| CCCCCn1cc(CCC(=O)Nc2ccc(Oc3cccnc3)cc2)c2ccccc21 | inactive: -15.9% | – |
| Oc1ccc(Br)cc1C=Nc1ccc(Cl)cc1 | inactive: -12.7% | – |

In a second layout: three of the compounds above
SMILES | activity change, negative = inhibition | Potency
COc1cccc(-c2nc(CS(=O)(=O)CC(=O)NCc3ccccc3OC)c(C)o2)c1 | inactive: 26.2% | –
CCCC1CCC(=NNS(=O)(=O)c2ccc(C)c([N+](=O)[O-])c2)CC1 (stereo not given) | – | inconclusive: 50.1 µM [inhibitor, partial curve, poor fit]
COc1cc(OC2CCN(C)CC2)ccc1Nc1ncc2c(n1)n(C1CCCC1)c(=O)n2C | – | inconclusive: 0.385 µM [inhibitor, full curve]

Going on with the list:

| SMILES | activity change, negative = inhibition | Potency |
| --- | --- | --- |
| Cc1sc2nc(C3CC3)nc(N3CCN(C(=O)c4ccccc4F)CC3)c2c1C | – | inconclusive: 44.7 µM [inhibitor, partial curve, poor fit] |
| O=C(Nc1ccccc1)c1sc2cc(C(F)(F)F)cnc2c1-c1cccs1 | – | inconclusive: 1 µM [inhibitor, full curve, poor fit] |
| CC(C)Nc1nc(Nc2ccc(F)cc2)c2sccc2n1 | – | inconclusive: 100 µM [inhibitor, partial curve, poor fit] |
| Cn1c(=O)cnc2cnc(OCc3ccccc3)nc21 | – | inconclusive: 39.8 µM [inhibitor, single point] |
| CSc1nc(-c2ccco2)nn1C(=O)Cc1ccccc1 | – | inconclusive: 44.7 µM [inhibitor, partial curve, poor fit] |
| CC(C)CCNC(=O)c1nccnc1N | inactive: 16.5% | – |
| O=C(NCC1OCCc2ccccc21)c1cccc(Br)c1 (stereo not given) | inactive: 0.642% | – |
| Nc1ccc(Cc2ccc(N)c(O)c2)cc1O | – | inconclusive: 35.5 µM [inhibitor, single point] |
| CC1=C(C(=O)Nc2ccc(C)cc2C)C(c2ccc(Cl)cc2)n2nc(C(=O)OC(C)C)nc2N1 (stereo not given) | – | inconclusive: 50.1 µM [inhibitor, partial curve, poor fit] |
| Cc1ccc(NC(=O)CN2c3cccc4cccc(c34)S2(=O)=O)cc1S(=O)(=O)N1CCCCC1 | – | inconclusive: 28.2 µM [inhibitor, partial curve, poor fit] |
| CCCCN1C(=O)C(CC(=O)Nc2ccc(F)c(F)c2)n2c1nc1ccccc12 (stereo not given) | – | inconclusive: 100 µM [inhibitor, single point] |
| COc1cc(CNc2ncc(-c3ccc(Br)cc3)n2C)cc(OC)c1OC | inactive: -80.2% | – |
| CCC(Sc1nnc(C)n1-c1ccccc1)C(=O)Nc1cc(C)on1 (stereo not given) | inactive: -12.7% | – |
| O=C(O)c1ccc(N/N=C/c2ccc(F)c(F)c2)cc1 | – | inconclusive: 15.8 µM [inhibitor, full curve, poor fit] |
| O=C(NCC(=O)N1CCC(Cc2ccccc2)CC1)c1ccccc1F | inactive: 2.73% | – |
| COc1ccc2c(c1)c(/C=N/Nc1ccc(C(=O)O)cc1)c(C)n2C | – | inconclusive: 44.7 µM [inhibitor, partial curve, poor fit] |
| CCc1ccc(-c2nn(-c3cc(Cl)ccc3[N+](=O)[O-])c(=O)c3ccccc23)cc1 | – | inconclusive: 2.82 µM [inhibitor, full curve, poor fit] |
| Cc1sc(-c2ccccn2)nc1OC(=O)c1ccc(Cl)cc1 | – | inconclusive: 89.1 µM [inhibitor, single point] |
| Cc1ccc(N=C2C(=O)Nc3ccccc32)cc1C | inactive: 0% | – |
| CCCCCCSc1ccc(-c2nc3ccc(Cl)cn3c2NCCCC)cc1OC | – | inconclusive: 50.1 µM [inhibitor, partial curve, poor fit] and inconclusive: 25.1 µM [inhibitor, partial curve] |
| COc1cc(OC)cc(N2C(=O)[C@@H]3C[C@@H](NC(=O)c4cccn4C)CCN3C2=O)c1 | – | inconclusive: 44.7 µM [inhibitor, partial curve, poor fit] |
| COc1cc(/C=C/C(=O)c2ccc(OC(=O)c3cccs3)cc2)cc(OC)c1OC | – | inconclusive: 39.8 µM [inhibitor, partial curve, poor fit] |
